# Results of single-concentration screens

The chains behind the UniProt entries cited, without tags or fusion partners.
UniProt P9WNZ1, whole entry: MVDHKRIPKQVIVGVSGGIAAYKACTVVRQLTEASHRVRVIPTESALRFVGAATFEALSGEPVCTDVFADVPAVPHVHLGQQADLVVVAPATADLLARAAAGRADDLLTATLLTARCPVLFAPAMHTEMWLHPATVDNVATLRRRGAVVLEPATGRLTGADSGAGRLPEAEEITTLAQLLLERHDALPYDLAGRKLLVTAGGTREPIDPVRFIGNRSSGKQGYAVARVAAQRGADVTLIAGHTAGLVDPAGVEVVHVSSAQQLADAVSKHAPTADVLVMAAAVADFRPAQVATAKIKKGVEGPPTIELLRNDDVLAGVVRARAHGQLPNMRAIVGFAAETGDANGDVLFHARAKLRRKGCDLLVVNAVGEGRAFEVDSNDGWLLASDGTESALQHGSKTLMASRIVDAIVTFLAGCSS

Each number is a percent effect as filed. The controls that fix the scale are not given in the record; negative values are as filed. Compounds were drawn at random from those tested, without regard to their results. A dash means the value is not listed here; it may have been measured.

Toxoplasma: 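Assay of Toxoplasma gondii numbers, read through their beta-galactosidase reporter with a colour substrate. Concentration: 10 µM. The record gives no direction; the compounds picked for IC50 retests had high values, so higher reads as fewer parasites. About 67,000 compounds were tested under these conditions; 0.38% (about 260) showed 50% or more at least once.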
CoaBC: 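Coenzyme A biosynthesis protein CoaBC, Mycobacterium tuberculosis (UniProt P9WNZ1). Enzyme assay of CoaBC with a phosphate dye (Biomol Green) read at 650 nm. Tested at 30 µM. Direction is inferred from only a few compounds that gave an IC50; most scored high, so higher reads as stronger inhibition. Most strong results did not repeat in a second test. About 67,000 compounds were tested under these conditions; 0.06% (about 40) showed 50% or more at least once.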

SMILES: CC(C)N(CC(=O)Nc1cccc(C#N)c1)C1CC1
Toxoplasma: -10.1
CoaBC: -1.46

SMILES: CC(=O)NCc1noc2c1CN(Cc1cnn(C)c1)CC2
Toxoplasma: -5.798

SMILES: CC(Cn1cncc1-c1cnn(Cc2ccccc2)c1)N1CCCCC1.Cl (stereo unspecified)
Toxoplasma: 13.26

SMILES: Cc1ccc(C(=O)N2CCN(CCC(C)(C)C)CC2)c(=O)[nH]1
Toxoplasma: -22.93
CoaBC: -0.2591

SMILES: Cc1cnn(CC2CCCN2C(=O)c2csc(-c3nnc[nH]3)n2)c1 (stereo unspecified)
Toxoplasma: -4.988
CoaBC: 1.567

SMILES: N#Cc1cccc(S(=O)(=O)N2CCCCC2CCN2CCCC2=O)c1 (stereo unspecified)
Toxoplasma: 4.564
CoaBC: 15.7

SMILES: COCc1cn(C2CCN(C(=O)Cc3ccsc3)CC2)nn1
Toxoplasma: 3.441
CoaBC: -2.451

SMILES: Cc1cc(C(=O)N2CC[C@@]3(O)CCN(S(C)(=O)=O)C[C@H]3C2)c(C)n1C
CoaBC: -20.65

SMILES: Cc1nc(CN(C)C2CCN(CCn3cc(C#N)cn3)C2)no1 (stereo unspecified)
Toxoplasma: -42.97
CoaBC: -5.093

SMILES: Cc1c(C(=O)N2CCC(c3nc(C)n4ccsc34)CC2)cnn1C
Toxoplasma: -4.08
CoaBC: 3.39

SMILES: COc1ccc(CNc2cccnc2-n2cccn2)c(OC)c1OC
Toxoplasma: 5.632
CoaBC: -1.148

SMILES: CC(C)(C)c1cc(NC(=O)NCCc2nnc3n2CCC3)c(C#N)s1
Toxoplasma: -7.241
CoaBC: 7.172

SMILES: CN(Cc1cc(C2CC2)[nH]n1)C(=O)c1ccccc1C1CCNC1 (stereo unspecified)
Toxoplasma: 4.578
CoaBC: 0.5141

SMILES: CCS(=O)(=O)N1Cc2ncn(C)c2C(COCC2CCOCC2)C1 (stereo unspecified)
CoaBC: 0

SMILES: Cc1[nH]nc2ncc(C(=O)N3CCN(CC(C)O)CC3)cc12.Cl (stereo unspecified)
Toxoplasma: 4.01

SMILES: CC(CCn1cccn1)NCc1n[nH]c2c1CCCCC2 (stereo unspecified)
Toxoplasma: 15.3
CoaBC: -1.474

SMILES: N#Cc1cccc(CN2C[C@H](NC(=O)C3CC3)[C@H]3OCCC[C@H]32)c1
CoaBC: 12.94

SMILES: O=S(=O)(c1c(N2CCCCC2)ccc2nonc12)N1CCCCC1
Toxoplasma: 11.46
CoaBC: 3.269

SMILES: c1cn(Cc2nnc(C3CCN(C4CCOCC4)CC3)n2C2CC2)cn1
Toxoplasma: -0.3304
CoaBC: -4.911

SMILES: COc1ccc(NC(=O)N2CCN(CCSc3ccccc3)CC2)cc1
Toxoplasma: 36.73
CoaBC: 2.908

SMILES: Cc1noc(C)c1CN1CCc2ncnc(-c3cccnc3)c2CC1
CoaBC: 4.691

SMILES: CC(C)(C)OC(=O)N[C@H]1CCN(c2cncc(Br)c2)C1
Toxoplasma: 1.143
CoaBC: 7.056

SMILES: O=C(c1cnc(C2CC2)nc1O)N1CCN(Cc2ccccc2F)CC1
Toxoplasma: -17.55
CoaBC: 2.036

SMILES: COCCN1CCCn2cnc(CN(C)C(C)C)c2C1
CoaBC: 10.86

SMILES: COc1ccccc1OCCCN(C)c1cc(C)nc(N)n1
Toxoplasma: 0.1729
CoaBC: -10.08

SMILES: Cc1cccc(CN2CCc3nnc(CO)n3CC2)n1
CoaBC: 2.902

SMILES: O=C(c1ccc(-n2ccnc2)nc1)N1CCCC(n2cccn2)C1 (stereo unspecified)
Toxoplasma: -20.18
CoaBC: -0.7979

SMILES: CNCc1ccc([C@@H]2CN(C(C)=O)C[C@H]2C(N)=O)cc1.Cl
Toxoplasma: 24.2

SMILES: CCCOc1ccc(Cl)cc1C(=O)N1CCC(n2cncn2)CC1
Toxoplasma: -8.865
CoaBC: 6.464

SMILES: O=C(NCC1CC1)[C@H]1C[C@@H]2CN(C(=O)NCc3ccccc3)C[C@H]1O2
CoaBC: 3.782

SMILES: [H][C@@]12CCCN1C[C@@H](Cc1ccccc1)N(Cc1cnn(C=C)c1C)C2
Toxoplasma: -25.04

SMILES: Cc1c(COC(C)C)cccc1NC(=O)N1CC[C@H](O)C1
Toxoplasma: 7.386
CoaBC: 1.946

SMILES: COCCN(Cc1cnn(C)c1)Cc1ccc(C)o1
Toxoplasma: 3.962
CoaBC: -8.871

SMILES: Cn1cccc1C(O)CNS(=O)(=O)Cc1ccccc1 (stereo unspecified)
Toxoplasma: 19.56
CoaBC: 9.514

SMILES: Cc1ccc(-c2ncc(C(=O)N3CCC[C@H](N)C3)c(O)n2)cc1
Toxoplasma: 3.877
CoaBC: 11.1

2 of the entries, repeated:

| SMILES | Toxoplasma | CoaBC |
|---|---|---|
| `CC(C)(C)c1cc(NC(=O)NCCc2nnc3n2CCC3)c(C#N)s1` | -7.241 | 7.172 |
| `COCCN1CCCn2cnc(CN(C)C(C)C)c2C1` | - | 10.86 |

From ChEMBL document CHEMBL3988442, “University of Dundee, Small-Polar-MMV Screening Library” (2021).